Data published in article doi:10.1101/228767.
Results are given in words; binding and its absence hold for the method and conditions named. In cells and extracts the contact can be indirect. Some binding calls cover weakened binding; strength is not graded here. Where a sequence is shown, tags or fusion partners need not be part of it.

Amino acid sequences for entries named in this document (tags omitted).
UniProt Q9BXL6: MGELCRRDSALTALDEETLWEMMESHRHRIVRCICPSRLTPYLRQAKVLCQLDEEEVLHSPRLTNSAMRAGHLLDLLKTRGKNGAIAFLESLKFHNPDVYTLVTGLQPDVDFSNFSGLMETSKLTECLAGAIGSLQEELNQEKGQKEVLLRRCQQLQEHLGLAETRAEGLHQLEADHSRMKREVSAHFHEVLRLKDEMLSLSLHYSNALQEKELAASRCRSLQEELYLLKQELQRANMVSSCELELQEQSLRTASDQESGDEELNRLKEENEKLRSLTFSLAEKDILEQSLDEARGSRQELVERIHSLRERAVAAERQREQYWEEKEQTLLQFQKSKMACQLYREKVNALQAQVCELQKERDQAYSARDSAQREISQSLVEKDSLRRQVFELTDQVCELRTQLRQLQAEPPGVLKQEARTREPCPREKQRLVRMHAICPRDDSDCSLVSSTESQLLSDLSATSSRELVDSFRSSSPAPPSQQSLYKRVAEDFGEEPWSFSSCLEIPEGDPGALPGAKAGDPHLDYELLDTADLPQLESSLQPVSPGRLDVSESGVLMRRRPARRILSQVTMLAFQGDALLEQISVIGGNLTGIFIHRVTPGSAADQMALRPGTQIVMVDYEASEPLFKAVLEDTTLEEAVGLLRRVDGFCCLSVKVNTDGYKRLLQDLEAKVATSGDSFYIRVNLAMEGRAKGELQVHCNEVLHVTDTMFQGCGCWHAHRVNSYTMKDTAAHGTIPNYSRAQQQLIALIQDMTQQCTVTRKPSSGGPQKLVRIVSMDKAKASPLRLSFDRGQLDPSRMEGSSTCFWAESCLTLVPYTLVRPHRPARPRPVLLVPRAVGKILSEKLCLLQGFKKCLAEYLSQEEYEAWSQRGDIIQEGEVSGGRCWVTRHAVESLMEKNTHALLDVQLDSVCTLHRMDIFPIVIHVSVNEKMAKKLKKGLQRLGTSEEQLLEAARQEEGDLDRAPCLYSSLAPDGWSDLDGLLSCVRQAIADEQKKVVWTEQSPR

How the values were obtained:
Assay in all cases: co-IP
[1] = biological target: T1, Flag-tagged CARD11 (human) (UniProt Q9BXL7)
T1 sequence: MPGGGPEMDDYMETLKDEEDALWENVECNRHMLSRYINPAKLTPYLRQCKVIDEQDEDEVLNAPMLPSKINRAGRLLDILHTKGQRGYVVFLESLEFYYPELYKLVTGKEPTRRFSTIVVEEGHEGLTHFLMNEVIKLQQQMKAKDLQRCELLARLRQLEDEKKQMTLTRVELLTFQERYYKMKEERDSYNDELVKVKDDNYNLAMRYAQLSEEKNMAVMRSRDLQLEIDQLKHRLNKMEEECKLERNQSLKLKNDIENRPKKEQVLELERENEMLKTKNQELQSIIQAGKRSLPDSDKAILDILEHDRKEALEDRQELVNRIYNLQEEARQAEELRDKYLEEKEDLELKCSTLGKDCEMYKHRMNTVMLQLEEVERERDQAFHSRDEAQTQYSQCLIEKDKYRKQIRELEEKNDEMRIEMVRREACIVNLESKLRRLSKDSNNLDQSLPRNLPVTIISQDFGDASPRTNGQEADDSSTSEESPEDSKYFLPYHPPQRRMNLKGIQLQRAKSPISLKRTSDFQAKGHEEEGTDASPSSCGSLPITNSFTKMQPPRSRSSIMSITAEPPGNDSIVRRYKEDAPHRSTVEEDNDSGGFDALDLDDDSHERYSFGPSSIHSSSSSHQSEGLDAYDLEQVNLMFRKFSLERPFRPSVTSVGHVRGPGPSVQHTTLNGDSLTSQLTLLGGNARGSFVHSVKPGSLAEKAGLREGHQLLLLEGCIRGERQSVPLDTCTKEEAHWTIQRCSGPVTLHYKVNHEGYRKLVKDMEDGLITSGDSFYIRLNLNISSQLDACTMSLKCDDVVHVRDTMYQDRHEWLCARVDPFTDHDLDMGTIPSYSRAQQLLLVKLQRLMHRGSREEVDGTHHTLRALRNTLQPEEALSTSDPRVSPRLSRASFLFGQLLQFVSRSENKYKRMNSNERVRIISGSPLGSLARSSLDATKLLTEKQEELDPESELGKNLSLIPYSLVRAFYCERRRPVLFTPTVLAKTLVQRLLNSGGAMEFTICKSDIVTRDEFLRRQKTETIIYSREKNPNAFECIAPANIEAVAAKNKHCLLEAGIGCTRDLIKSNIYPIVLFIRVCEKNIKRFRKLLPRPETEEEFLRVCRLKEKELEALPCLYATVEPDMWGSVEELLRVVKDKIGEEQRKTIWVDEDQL

[2] = biological target: T2, Flag-tagged CARD10 (human) (UniProt Q9BWT7)
T2 sequence: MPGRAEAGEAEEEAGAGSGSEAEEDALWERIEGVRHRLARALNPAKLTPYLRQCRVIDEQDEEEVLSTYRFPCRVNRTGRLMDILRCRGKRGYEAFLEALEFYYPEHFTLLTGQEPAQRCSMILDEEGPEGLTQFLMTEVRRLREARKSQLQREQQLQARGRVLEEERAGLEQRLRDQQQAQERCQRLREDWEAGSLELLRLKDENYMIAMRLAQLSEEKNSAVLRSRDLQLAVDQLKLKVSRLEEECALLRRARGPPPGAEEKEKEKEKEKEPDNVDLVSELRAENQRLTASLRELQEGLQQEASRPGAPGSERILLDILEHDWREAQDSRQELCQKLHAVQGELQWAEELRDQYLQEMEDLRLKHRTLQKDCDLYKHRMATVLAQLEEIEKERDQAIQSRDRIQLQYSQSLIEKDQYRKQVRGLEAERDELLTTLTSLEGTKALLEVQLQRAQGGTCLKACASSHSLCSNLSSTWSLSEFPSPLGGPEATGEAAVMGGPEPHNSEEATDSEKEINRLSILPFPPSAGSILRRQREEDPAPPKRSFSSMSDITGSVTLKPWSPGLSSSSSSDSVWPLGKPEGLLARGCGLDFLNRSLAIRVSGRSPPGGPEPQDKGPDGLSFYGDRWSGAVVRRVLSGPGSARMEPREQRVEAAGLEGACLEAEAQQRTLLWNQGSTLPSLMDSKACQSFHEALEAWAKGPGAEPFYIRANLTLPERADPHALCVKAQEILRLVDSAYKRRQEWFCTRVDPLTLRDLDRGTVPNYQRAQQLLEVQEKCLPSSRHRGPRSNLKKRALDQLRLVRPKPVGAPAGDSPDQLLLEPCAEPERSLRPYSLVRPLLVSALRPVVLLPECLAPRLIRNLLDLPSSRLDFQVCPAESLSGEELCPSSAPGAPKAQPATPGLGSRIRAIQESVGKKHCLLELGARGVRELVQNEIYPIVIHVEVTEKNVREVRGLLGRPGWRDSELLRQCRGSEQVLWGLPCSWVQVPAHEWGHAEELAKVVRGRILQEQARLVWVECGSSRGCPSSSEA

[3] = biological target: T3, Flag-tagged CARD9 (human) (UniProt Q9H257)
T3 sequence: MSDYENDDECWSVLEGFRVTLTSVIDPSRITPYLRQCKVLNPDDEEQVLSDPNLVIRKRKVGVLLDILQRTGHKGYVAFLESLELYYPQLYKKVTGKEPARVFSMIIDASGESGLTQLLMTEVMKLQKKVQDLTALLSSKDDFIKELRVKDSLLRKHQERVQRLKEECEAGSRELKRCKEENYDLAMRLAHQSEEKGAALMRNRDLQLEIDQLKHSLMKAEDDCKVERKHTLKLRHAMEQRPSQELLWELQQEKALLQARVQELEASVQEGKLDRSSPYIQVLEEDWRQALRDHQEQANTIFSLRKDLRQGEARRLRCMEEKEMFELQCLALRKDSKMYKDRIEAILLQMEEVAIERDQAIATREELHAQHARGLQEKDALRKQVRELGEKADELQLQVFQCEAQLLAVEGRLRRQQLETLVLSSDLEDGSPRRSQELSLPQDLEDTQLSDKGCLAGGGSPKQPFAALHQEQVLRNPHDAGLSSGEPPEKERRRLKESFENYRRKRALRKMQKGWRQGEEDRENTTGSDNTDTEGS

binding [1]: binds
binding [2]: binds
binding [3]: no binding
Substance: un-tagged CARD14 (from UniProt Q9BXL6 1-1004)
